Reference: PubChem BioAssay AID1224830 (NIAID, 2016)
In all, the deposit lists about 18,000 reagents; this is a random part of them. In the full data, about 2,900 (16%) got an active call. 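Calls are made per well; low scores hint the gene aids the LPS response, high scores that it dampens it.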 Repeated entries: four replicate wells of each siRNA pool.

Aim: 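Genes whose knock-down alters the TNF-alpha reporter response to LPS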 (primary screen)
Cells: human THP-1 monocytic leukaemia cells, TNF dual-luciferase reporter clone, PMA-differentiated to macrophage-like cells
Reagent: siRNA pool against human genes, 50 nM
Timing: LPS for 4 h, given about 3 days after siRNA transfection
Conditions: bacterial LPS (TLR4 ligand), 10 ng/ml
Read-out: 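TNF firefly reporter luminescence divided by renilla, normalised to the plate median, then turned into a robust z-score for each replicate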
Reading the numbers: TNF reporter robust z-score: higher = stronger TNF reporter response to LPS
Active means: 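Each well counts as active if its z-score is over 2.8 or under -1.5; controls are left without a call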

gene	TNF reporter robust z-score	Outcome
SGPP2	-1.37	inactive
SGPP2	-1.87	active
SGPP2	-1.56	active
SGPP2	-0.98	inactive
RETNLB	-1.14	inactive
RETNLB	-0.99	inactive
RETNLB	-0.21	inactive
RETNLB	-0.28	inactive
MESD	0.6	inactive
MESD	-0.33	inactive
MESD	1.71	inactive
MESD	1.47	inactive
OR2T2	-0.1	inactive
OR2T2	-0.7	inactive
OR2T2	-0.68	inactive
SULT6B1	-0.18	inactive
SULT6B1	-0.42	inactive
SULT6B1	-0.44	inactive
SULT6B1	0.15	inactive
CAPN5	-0.24	inactive
CAPN5	-0.44	inactive
CAPN5	-1.02	inactive
CAPN5	0.33	inactive
PPP1R15B	-1.6	active
PPP1R15B	-0.8	inactive
PPP1R15B	-0.49	inactive
PPP1R15B	-1.26	inactive
FBXL12	2.34	inactive
FBXL12	1.17	inactive
FBXL12	-0.36	inactive
FBXL12	0.35	inactive
FAM131A	3.18	active
FAM131A	1.56	inactive
FAM131A	2.53	inactive
FAM131A	2.49	inactive
CNBP	-0.95	inactive
CNBP	-0.64	inactive
CNBP	-0.97	inactive
CNBP	-0.37	inactive
A2M	-0.61	inactive
A2M	-0.71	inactive
A2M	-1.25	inactive
A2M	-1.21	inactive
MIA3	0.64	inactive
MIA3	0.59	inactive
MIA3	0.42	inactive
MIA3	0.71	inactive
TRIM51G	-1.42	inactive
TRIM51G	-0.45	inactive
TRIM51G	-1.8	active
TRIM51G	-1.28	inactive
TRIM51G	0.38	inactive
TRIM51G	-2.23	active
TRIM51G	-0.38	inactive
TRIM51G	3.59	active
MFAP3L	0.23	inactive
MFAP3L	0.07	inactive
MFAP3L	0.29	inactive
MFAP3L	1.26	inactive
COX8C	0.51	inactive
COX8C	4.19	active
COX8C	3.58	active
COX8C	1.1	inactive
ETFBKMT	0.44	inactive
ETFBKMT	1.8	inactive
ETFBKMT	-0.32	inactive
ETFBKMT	-0.37	inactive
TBCC	0.14	inactive
TBCC	0.46	inactive
TBCC	0.32	inactive
TBCC	1.08	inactive
CIB2	-0.1	inactive
CIB2	-0.54	inactive
CIB2	-0.24	inactive
CIB2	0.09	inactive
SCO2	-1.25	inactive
SCO2	-1.23	inactive
SCO2	-0.37	inactive
SCO2	-0.09	inactive
C1QA	0.5	inactive
C1QA	-0.25	inactive
C1QA	0.28	inactive
C1QA	-0.14	inactive
SYT4	-0.35	inactive
SYT4	0.13	inactive
SYT4	-0.21	inactive
SYT4	0.85	inactive
PPFIA3	0.65	inactive
PPFIA3	2.27	inactive
PPFIA3	0.7	inactive
PPFIA3	0.22	inactive
CLCF1	-0.23	inactive
CLCF1	3.08	active
CLCF1	0.64	inactive
CLCF1	2.31	inactive
CPB2	3.19	active
CPB2	0.03	inactive
CPB2	-0.07	inactive
CPB2	0.84	inactive
FUCA2	-0.79	inactive
FUCA2	-0.5	inactive
FUCA2	-1.19	inactive
FUCA2	-0.04	inactive
GH2	-0.77	inactive
GH2	-0.81	inactive
GH2	-0.91	inactive
PRELID3B	3.44	active
PRELID3B	1.04	inactive
PRELID3B	0.69	inactive
PRELID3B	-0.11	inactive

Called active (from the list above):
gene	TNF reporter robust z-score	Outcome
SGPP2	-1.87	active
SGPP2	-1.56	active
PPP1R15B	-1.6	active
FAM131A	3.18	active
TRIM51G	-1.8	active
TRIM51G	-2.23	active
TRIM51G	3.59	active
COX8C	4.19	active
COX8C	3.58	active
CLCF1	3.08	active
CPB2	3.19	active
PRELID3B	3.44	active
